Where “and” joins values, the source holds several entries; their conditions need not be identical. Equal values may be shown once. Read-outs that look alike come from different tables or passages of the source. The match of structure and compound is tentative.
Legend:
[1] = target: CDK2–cyclin A2 (Homo sapiens, UniProt P20248+P24941); experiment: In vitro phosphotransferase (kinase) assay of rCDK2–cyclin A2 on peptide substrates; conditions: for Km: read-out: CDK2-cyclin A2 Km; for Km / CDK2-cyclin A2 Km: Fig. 2B, 0.1 mM [γ-32P]ATP, 30 °C, representative of 3 independent experiments; for Km / CDK2-cyclin A2 Vmax / CDK2-cyclin A2 Km: CDK-tide derivatives, peptide 0-100 μM, Michaelis–Menten fit, mean ± SEM; for CDK2–cyclin A2 Vmax as stated in text: running text on Fig. 2B, one range stated for TPKKR, SPKKA and TPKKA together; for CDK2-cyclin A2 Vmax: Fig. 2B table; for CDK2–cyclin A2 activity against substituted peptide relative to the parental CDK substrate peptide: 'similar results' = as for + 1P → A (abolished), data not shown
Experimental: PCTAIRE-1C-16 (sc-174) and PCTAIRE-1G6.1 (sc-53410) antibodies were from Santa Cruz Biotechnology. Cyclin Y antibody was from Proteintech. HA.11 (16B2) antibody was from Covance Research Products. The following antibodies were raised in sheep by the Division of Signal Transduction Therapy (DSTT, University of Dundee) against the indicated immunogens: PCTAIRE-1 (S552C, full length human 6×his-PCTAIRE-1), cyclin Y (S206D, full length human GST-cyclin Y). rCDK2–cyclin A2 was prepared by overexpression in Escherichia coli as previously described. Peptide substrates for kinase assays were synthesised by GL Biochem, and the peptide library was synthesised by Anaspec, Inc. [γ-^32P] ATP was from PerkinElmer. HRP-conjugated secondary antibodies were from Jackson Immunoresearch. Unless otherwise indicated all other reagents were from Sigma.
(§1) Fig. 1 Determination of PCTAIRE-1 optimal substrate motif. (A) GST–PCTAIRE-1 WT and kinase dead (KD, D304A) were prepared by overexpression in HEK293 and 1 μg assayed in vitro for phosphotransferase activity against 250 μM of the canonical CDK substrate (CDK-tide, PKT*PKKAKKL) or a peptide derived from the putative PCTAIRE-1 substrate, NSF (NSF-tide, FIKICS*PDKMIGRRR) as described in Materials and methods. (B) GST–PCTAIRE-1 WT/KD was prepared as described in (A) and the optimal substrate motif determined by positional scanning peptide library screening (PSPL) as described in Materials and methods. (C) The activity of GST–PCTAIRE-1 (1 μg) and CDK2–cyclin A2 (10 ng) was assayed against a panel of CDK-tide derivatives (concentration fixed at 250 μM) based on the results of the degenerate library screen (modifications are underlined). Results are expressed as mean ± SEM and are representative of 3 independent experiments.
(§2) Purified rPCTAIRE-1, rCDK2–cyclin A2 or immune complexes isolated from cell/tissue lysates were assayed for phosphotransferase activity in a final assay volume of 50 μl containing 50 mM HEPES pH 7.5, 0.1 mM EGTA, 10 mM Mg(OAc)2, 0.1 mM [γ-^32P] ATP (300 CPM pmol^− 1), 1 mM DTT and the indicated concentrations of peptide substrate. Reactions were incubated at 30 °C and terminated by spotting onto P81 paper and immersion in 75 mM H3PO4. P81 filters were washed 3 × 10 min with H3PO4, rinsed with acetone, air-dried and incorporation of [γ-^32P] determined by Cherenkov counting. Results are expressed in U mg^− 1, where 1 U is defined as the incorporation of 1 nmol phosphate.min^− 1.
(§3) Fig. 2 Optimisation of PCTAIRE-1 substrate peptide. The in vitro phosphotransferase activity of 1 μg GST–PCTAIRE-1 (A) and 10 ng CDK2–cyclin A2 (B) was determined using a panel of CDK-tide derivatives (modifications from the parental peptide are underlined). Peptide conc. was varied over the range 0 > 100 μM and substrate saturation curves were fitted by non-linear regression to the Michaelis–Menten model. Fitted parameters [Km (μM) and Vmax (mU mg^− 1)] are listed in the adjoining table. (C) Based on the CDK-tide optimisation, derivatives of NSF-tide were synthesised (modifications underlined) and assayed for PCTAIRE-1 activity as described in (A + B). 100% GST–PCTAIRE-1 = 164 mU mg^− 1 and 100% CDK2–[…] = 940 U mg^− 1. (D) PCTAIRE-1 was immunoprecipitated from 2 mg of HEK293 lysate and kinase activity determined using 250 μM CDK-tide or the optimised substrate, PKS*PKARKKL (PCTAIRE-tide) as described in Materials and methods. Results are expressed as mean ± SEM and are representative of 3 independent experiments. […]

Sequences of proteins named here, by UniProt entry; tags and fusion partners are left off.
UniProt Q00536, whole entry: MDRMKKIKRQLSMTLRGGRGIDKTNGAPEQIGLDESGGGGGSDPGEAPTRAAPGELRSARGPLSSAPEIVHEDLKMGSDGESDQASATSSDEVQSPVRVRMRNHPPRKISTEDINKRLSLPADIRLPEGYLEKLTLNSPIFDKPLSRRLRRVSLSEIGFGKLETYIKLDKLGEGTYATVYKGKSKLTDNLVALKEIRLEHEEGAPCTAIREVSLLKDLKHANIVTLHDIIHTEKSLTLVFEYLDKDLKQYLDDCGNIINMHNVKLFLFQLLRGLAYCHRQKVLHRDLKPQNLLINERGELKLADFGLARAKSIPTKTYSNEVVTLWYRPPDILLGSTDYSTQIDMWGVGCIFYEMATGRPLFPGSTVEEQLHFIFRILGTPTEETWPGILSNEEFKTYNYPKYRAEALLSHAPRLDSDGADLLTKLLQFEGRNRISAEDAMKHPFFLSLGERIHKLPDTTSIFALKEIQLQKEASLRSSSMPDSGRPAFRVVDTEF

[2] = target: GST–PCTAIRE-1 (Homo sapiens, UniProt Q00536); experiment: In vitro phosphotransferase (kinase) assay of purified GST–PCTAIRE-1 on peptide substrates; conditions: 1 μg GST–PCTAIRE-1; for GST-PCTAIRE-1 Vmax / Km / GST-PCTAIRE-1 Km: peptide 0-100 μM, mean ± SEM; for Km: read-out: GST-PCTAIRE-1 Km; for PCTAIRE-1 activity, fold increase relative to the parental CDK substrate peptide / PCTAIRE-1 activity against substituted peptide relative to the parental CDK substrate peptide: Fig. 1C, peptide fixed at 250 μM; for PCTAIRE-1 activity against substituted peptide relative to the parental CDK substrate peptide: 'similar results' = as for + 1P → A (abolished), data not shown
Experimental: HEK293 cells were transfected with pEBG6P encoding GST-tagged human PCTAIRE-1 and harvested 36 h later as described above. GST–PCTAIRE-1 was isolated by batch-wise purification using Glutathione-Sepharose 4B. Briefly, lysates were incubated with equilibrated resin for 1 h at 4 °C, washed extensively with lysis buffer and eluted with 20 mM reduced glutathione in 50 mM Tris–HCl pH 8, 0.27 M sucrose, 0.1 mM EGTA and 1 mM DTT. Protein concentration was estimated by densitometry of Coomassie-stained gels using BSA standards. PCTAIRE-1 preparations were snap-frozen in N2(l) and stored at − 80 °C.
as §1, §2, §3

[3] = Fig. 2A, CDK-tide derivatives, Michaelis–Menten fit, 0.1 mM [γ-32P]ATP, 30 °C, 1 U = 1 nmol phosphate min-1
[4] = Fig. 2A, CDK-tide derivatives, Michaelis–Menten non-linear regression, 0.1 mM [γ-32P]ATP, 30 °C, P81 paper, representative of 3 independent experiments
[5] = Fig. 1C, 10 ng CDK2–cyclin A2, peptide fixed at 250 μM
[6] = Fig. 2C, NSF-tide derivatives, Michaelis–Menten fit
[7] = Fig. 2C, NSF-tide derivatives, Michaelis–Menten fit, 0.1 mM [γ-32P]ATP, 30 °C

Row | Compound | GST-PCTAIRE-1 Vmax [2, 3] | Km [2, 4] [µM] | CDK2-cyclin A2 Vmax ([1]; 10 ng CDK2–cyclin A2) | CDK2-cyclin A2 Km ([1]; 10 ng CDK2–cyclin A2) | CDK2–cyclin A2 activity against substituted peptide relative to the parental CDK substrate peptide [1, 5] | also measured
1 | CC[C@H](C)[C@H](NC(=O)[C@H](CCSC)NC(=O)[C@H](CCCCN)NC(=O)[C@H](CCCCN)NC(=O)[C@@H]1CCCN1C(=O)[C@H](CO)NC(=O)[C@H](CS)NC(=O)[C@@H](NC(=O)[C@H](CCCCN)NC(=O)[C@@H](NC(=O)[C@@H](N)Cc1ccccc1)[C@@H](C)CC)[C@@H](C)CC)C(=O)NCC(=O)N[C@@H](CCCNC(=N)N)C(=O)N[C@@H](CCCNC(=N)N)C(=O)N[C@@H](CCCNC(=N)N)C(=O)O |  |  |  |  |  | GST-PCTAIRE-1 Vmax [2, 6]: 240 ± 9.9 mU.mg^-1; Km [2, 7]: 23 µM
2 | CC[C@H](C)[C@H](NC(=O)[C@H](CCSC)NC(=O)[C@H](C)NC(=O)[C@H](CCCCN)NC(=O)[C@@H]1CCCN1C(=O)[C@H](CO)NC(=O)[C@H](CS)NC(=O)[C@@H](NC(=O)[C@H](CCCCN)NC(=O)[C@@H](NC(=O)[C@@H](N)Cc1ccccc1)[C@@H](C)CC)[C@@H](C)CC)C(=O)NCC(=O)N[C@@H](CCCNC(=N)N)C(=O)N[C@@H](CCCNC(=N)N)C(=O)N[C@@H](CCCNC(=N)N)C(=O)O |  |  |  |  |  | GST-PCTAIRE-1 Km [2, 7]: No fit; GST-PCTAIRE-1 Vmax [2, 6]: No fit
3 | CC(C)C[C@H](NC(=O)[C@H](CCCCN)NC(=O)[C@H](CCCCN)NC(=O)[C@H](CCCNC(=N)N)NC(=O)[C@H](CCCCN)NC(=O)[C@H](CCCCN)NC(=O)[C@@H]1CCCN1C(=O)[C@@H](NC(=O)[C@H](CCCCN)NC(=O)[C@@H]1CCCN1)[C@@H](C)O)C(=O)O | 160 ± 6 mU.mg^-1 | 22 |  |  | comparable | Km ([1]; 10 ng CDK2–cyclin A2): 20 µM and 19 µM; CDK2–cyclin A2 Vmax as stated in text [1]: 1100–1500 mU mg^− 1; PCTAIRE-1 activity, fold increase relative to the parental CDK substrate peptide [2]: ~ 2 fold

Further lines, with some results ahead:

Row | GST-PCTAIRE-1 Vmax [2, 3] | Km [2, 4] [µM] | CDK2-cyclin A2 Vmax ([1]; 10 ng CDK2–cyclin A2) | CDK2-cyclin A2 Km ([1]; 10 ng CDK2–cyclin A2) | CDK2–cyclin A2 activity against substituted peptide relative to the parental CDK substrate peptide [1, 5] | Compound | also measured
4 | 150 ± 13 mU.mg^-1 | 50 |  |  |  | CC(C)C[C@H](NC(=O)[C@H](CCCCN)NC(=O)[C@H](CCCCN)NC(=O)[C@H](C)NC(=O)[C@H](CCCCN)NC(=O)[C@H](CCCCN)NC(=O)[C@@H]1CCCN1C(=O)[C@H](CO)NC(=O)[C@H](CCCCN)NC(=O)[C@@H]1CCCN1)C(=O)O | Km ([1]; 10 ng CDK2–cyclin A2): 20 µM and 24 µM; CDK2–cyclin A2 Vmax as stated in text [1]: 1100–1500 mU mg^− 1
5 | 360 ± 23 mU.mg^-1 | 37 | Neg | Neg |  | CC(C)C[C@H](NC(=O)[C@H](CCCCN)NC(=O)[C@H](CCCCN)NC(=O)[C@H](C)NC(=O)[C@H](C)NC(=O)[C@H](CCCCN)NC(=O)[C@@H]1CCCN1C(=O)[C@@H](NC(=O)[C@H](CCCCN)NC(=O)[C@@H]1CCCN1)[C@@H](C)O)C(=O)O | CDK2–cyclin A2 activity, fold lower than on the original CDK substrate peptide [1, 5]: ~ 7 fold; PCTAIRE-1 activity, fold increase relative to the parental CDK substrate peptide [2]: ~ 3 fold
6 | 430 ± 16 mU.mg^-1 | 25 | No fit | No fit |  | CC(C)C[C@H](NC(=O)[C@H](CCCCN)NC(=O)[C@H](CCCCN)NC(=O)[C@H](C)NC(=O)[C@H](C)NC(=O)[C@H](CCCCN)NC(=O)[C@@H]1CCCN1C(=O)[C@H](CO)NC(=O)[C@H](CCCCN)NC(=O)[C@@H]1CCCN1)C(=O)O | 
7 | Neg |  | Neg | Neg | negligible | CC(C)C[C@H](NC(=O)[C@H](CCCCN)NC(=O)[C@H](CCCCN)NC(=O)[C@H](C)NC(=O)[C@H](CCC(=O)O)NC(=O)[C@H](CCCCN)NC(=O)[C@@H]1CCCN1C(=O)[C@@H](NC(=O)[C@H](CCCCN)NC(=O)[C@@H]1CCCN1)[C@@H](C)O)C(=O)O | PCTAIRE-1 activity against substituted peptide relative to the parental CDK substrate peptide [2]: negligible; GST-PCTAIRE-1 Km [2, 4]: Neg
8 | Neg |  | No fit | No fit | robustly reduced | CC(C)C[C@H](NC(=O)[C@H](CCCCN)NC(=O)[C@H](CCCCN)NC(=O)[C@H](C)NC(=O)[C@H](CCCCN)NC(=O)[C@H](C)NC(=O)[C@@H]1CCCN1C(=O)[C@@H](NC(=O)[C@H](CCCCN)NC(=O)[C@@H]1CCCN1)[C@@H](C)O)C(=O)O | PCTAIRE-1 activity against substituted peptide relative to the parental CDK substrate peptide [2]: robustly reduced; GST-PCTAIRE-1 Km [2, 4]: Neg
